{"source": "paper PMC5882533", "about": "(Cancer discovery, 2018)", "key": {"OCI-LY1": {"test_system": "OCI-LY1", "assay": "Proliferation of OCI-LY1 cells", "format": "cell-based, human", "conditions": "OCI-LY1, increasing doses, 72h"}, "MEC-1": {"test_system": "MEC-1", "assay": "Proliferation of MEC-1 cells", "format": "cell-based, human", "conditions": "MEC-1, increasing doses, 72h"}}}
{"molecule": "CCNC(=O)C[C@@H]1N=C(c2ccc(Cl)cc2)c2cc(OC)ccc2-n2c(C)nnc21", "note": "[iBET762]", "values": [{"measurement": "proliferation", "setting": "OCI-LY1", "result": "Dose dependent decrease of proliferation"}, {"measurement": "proliferation", "setting": "MEC-1", "result": "Dose dependent decrease of proliferation"}]}
